From doi:10.1101/2023.12.12.569033
Results are given in words; binding and its absence hold for the method and conditions named. In cells and extracts the contact can be indirect. These calls come from enrichment with a bait or labelling near it, and not all partners need be listed. Sequences can lack the tags named with a protein.

By UniProt entry, the sequences of proteins in these tests, tags left out.
UniProt Q969M3: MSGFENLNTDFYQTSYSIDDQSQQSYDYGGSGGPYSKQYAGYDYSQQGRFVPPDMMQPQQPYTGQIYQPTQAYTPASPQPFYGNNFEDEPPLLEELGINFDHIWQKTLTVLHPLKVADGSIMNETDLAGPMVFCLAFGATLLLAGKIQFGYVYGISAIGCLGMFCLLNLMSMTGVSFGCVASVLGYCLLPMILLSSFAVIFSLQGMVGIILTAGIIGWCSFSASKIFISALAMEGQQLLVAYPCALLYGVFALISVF

Biological target: T1, FLAG-GOT1A (Flag-GOLT1A), stably overexpressed in MCF10A cells (human) (UniProt Q6ZVE7)
T1 sequence: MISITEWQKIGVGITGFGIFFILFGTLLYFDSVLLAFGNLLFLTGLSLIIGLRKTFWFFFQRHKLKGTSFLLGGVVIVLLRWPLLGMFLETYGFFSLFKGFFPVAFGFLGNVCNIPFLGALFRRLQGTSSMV
Assay: affinity purification with mass spectrometry

YIPF5, endogenous in MCF10A cells (from UniProt Q969M3 1-257)
binding: binds
